Source: PMC5742151
Read-outs that look alike come from different tables or passages of the source. These are yes or no findings as the source states them, for the method shown. In cells and extracts the contact can be indirect. Some results given as binding are weak or reduced against the parent protein; the word gives no strength.

By UniProt entry, the sequences of proteins in these tests, tags left out.
UniProt E9PZQ0: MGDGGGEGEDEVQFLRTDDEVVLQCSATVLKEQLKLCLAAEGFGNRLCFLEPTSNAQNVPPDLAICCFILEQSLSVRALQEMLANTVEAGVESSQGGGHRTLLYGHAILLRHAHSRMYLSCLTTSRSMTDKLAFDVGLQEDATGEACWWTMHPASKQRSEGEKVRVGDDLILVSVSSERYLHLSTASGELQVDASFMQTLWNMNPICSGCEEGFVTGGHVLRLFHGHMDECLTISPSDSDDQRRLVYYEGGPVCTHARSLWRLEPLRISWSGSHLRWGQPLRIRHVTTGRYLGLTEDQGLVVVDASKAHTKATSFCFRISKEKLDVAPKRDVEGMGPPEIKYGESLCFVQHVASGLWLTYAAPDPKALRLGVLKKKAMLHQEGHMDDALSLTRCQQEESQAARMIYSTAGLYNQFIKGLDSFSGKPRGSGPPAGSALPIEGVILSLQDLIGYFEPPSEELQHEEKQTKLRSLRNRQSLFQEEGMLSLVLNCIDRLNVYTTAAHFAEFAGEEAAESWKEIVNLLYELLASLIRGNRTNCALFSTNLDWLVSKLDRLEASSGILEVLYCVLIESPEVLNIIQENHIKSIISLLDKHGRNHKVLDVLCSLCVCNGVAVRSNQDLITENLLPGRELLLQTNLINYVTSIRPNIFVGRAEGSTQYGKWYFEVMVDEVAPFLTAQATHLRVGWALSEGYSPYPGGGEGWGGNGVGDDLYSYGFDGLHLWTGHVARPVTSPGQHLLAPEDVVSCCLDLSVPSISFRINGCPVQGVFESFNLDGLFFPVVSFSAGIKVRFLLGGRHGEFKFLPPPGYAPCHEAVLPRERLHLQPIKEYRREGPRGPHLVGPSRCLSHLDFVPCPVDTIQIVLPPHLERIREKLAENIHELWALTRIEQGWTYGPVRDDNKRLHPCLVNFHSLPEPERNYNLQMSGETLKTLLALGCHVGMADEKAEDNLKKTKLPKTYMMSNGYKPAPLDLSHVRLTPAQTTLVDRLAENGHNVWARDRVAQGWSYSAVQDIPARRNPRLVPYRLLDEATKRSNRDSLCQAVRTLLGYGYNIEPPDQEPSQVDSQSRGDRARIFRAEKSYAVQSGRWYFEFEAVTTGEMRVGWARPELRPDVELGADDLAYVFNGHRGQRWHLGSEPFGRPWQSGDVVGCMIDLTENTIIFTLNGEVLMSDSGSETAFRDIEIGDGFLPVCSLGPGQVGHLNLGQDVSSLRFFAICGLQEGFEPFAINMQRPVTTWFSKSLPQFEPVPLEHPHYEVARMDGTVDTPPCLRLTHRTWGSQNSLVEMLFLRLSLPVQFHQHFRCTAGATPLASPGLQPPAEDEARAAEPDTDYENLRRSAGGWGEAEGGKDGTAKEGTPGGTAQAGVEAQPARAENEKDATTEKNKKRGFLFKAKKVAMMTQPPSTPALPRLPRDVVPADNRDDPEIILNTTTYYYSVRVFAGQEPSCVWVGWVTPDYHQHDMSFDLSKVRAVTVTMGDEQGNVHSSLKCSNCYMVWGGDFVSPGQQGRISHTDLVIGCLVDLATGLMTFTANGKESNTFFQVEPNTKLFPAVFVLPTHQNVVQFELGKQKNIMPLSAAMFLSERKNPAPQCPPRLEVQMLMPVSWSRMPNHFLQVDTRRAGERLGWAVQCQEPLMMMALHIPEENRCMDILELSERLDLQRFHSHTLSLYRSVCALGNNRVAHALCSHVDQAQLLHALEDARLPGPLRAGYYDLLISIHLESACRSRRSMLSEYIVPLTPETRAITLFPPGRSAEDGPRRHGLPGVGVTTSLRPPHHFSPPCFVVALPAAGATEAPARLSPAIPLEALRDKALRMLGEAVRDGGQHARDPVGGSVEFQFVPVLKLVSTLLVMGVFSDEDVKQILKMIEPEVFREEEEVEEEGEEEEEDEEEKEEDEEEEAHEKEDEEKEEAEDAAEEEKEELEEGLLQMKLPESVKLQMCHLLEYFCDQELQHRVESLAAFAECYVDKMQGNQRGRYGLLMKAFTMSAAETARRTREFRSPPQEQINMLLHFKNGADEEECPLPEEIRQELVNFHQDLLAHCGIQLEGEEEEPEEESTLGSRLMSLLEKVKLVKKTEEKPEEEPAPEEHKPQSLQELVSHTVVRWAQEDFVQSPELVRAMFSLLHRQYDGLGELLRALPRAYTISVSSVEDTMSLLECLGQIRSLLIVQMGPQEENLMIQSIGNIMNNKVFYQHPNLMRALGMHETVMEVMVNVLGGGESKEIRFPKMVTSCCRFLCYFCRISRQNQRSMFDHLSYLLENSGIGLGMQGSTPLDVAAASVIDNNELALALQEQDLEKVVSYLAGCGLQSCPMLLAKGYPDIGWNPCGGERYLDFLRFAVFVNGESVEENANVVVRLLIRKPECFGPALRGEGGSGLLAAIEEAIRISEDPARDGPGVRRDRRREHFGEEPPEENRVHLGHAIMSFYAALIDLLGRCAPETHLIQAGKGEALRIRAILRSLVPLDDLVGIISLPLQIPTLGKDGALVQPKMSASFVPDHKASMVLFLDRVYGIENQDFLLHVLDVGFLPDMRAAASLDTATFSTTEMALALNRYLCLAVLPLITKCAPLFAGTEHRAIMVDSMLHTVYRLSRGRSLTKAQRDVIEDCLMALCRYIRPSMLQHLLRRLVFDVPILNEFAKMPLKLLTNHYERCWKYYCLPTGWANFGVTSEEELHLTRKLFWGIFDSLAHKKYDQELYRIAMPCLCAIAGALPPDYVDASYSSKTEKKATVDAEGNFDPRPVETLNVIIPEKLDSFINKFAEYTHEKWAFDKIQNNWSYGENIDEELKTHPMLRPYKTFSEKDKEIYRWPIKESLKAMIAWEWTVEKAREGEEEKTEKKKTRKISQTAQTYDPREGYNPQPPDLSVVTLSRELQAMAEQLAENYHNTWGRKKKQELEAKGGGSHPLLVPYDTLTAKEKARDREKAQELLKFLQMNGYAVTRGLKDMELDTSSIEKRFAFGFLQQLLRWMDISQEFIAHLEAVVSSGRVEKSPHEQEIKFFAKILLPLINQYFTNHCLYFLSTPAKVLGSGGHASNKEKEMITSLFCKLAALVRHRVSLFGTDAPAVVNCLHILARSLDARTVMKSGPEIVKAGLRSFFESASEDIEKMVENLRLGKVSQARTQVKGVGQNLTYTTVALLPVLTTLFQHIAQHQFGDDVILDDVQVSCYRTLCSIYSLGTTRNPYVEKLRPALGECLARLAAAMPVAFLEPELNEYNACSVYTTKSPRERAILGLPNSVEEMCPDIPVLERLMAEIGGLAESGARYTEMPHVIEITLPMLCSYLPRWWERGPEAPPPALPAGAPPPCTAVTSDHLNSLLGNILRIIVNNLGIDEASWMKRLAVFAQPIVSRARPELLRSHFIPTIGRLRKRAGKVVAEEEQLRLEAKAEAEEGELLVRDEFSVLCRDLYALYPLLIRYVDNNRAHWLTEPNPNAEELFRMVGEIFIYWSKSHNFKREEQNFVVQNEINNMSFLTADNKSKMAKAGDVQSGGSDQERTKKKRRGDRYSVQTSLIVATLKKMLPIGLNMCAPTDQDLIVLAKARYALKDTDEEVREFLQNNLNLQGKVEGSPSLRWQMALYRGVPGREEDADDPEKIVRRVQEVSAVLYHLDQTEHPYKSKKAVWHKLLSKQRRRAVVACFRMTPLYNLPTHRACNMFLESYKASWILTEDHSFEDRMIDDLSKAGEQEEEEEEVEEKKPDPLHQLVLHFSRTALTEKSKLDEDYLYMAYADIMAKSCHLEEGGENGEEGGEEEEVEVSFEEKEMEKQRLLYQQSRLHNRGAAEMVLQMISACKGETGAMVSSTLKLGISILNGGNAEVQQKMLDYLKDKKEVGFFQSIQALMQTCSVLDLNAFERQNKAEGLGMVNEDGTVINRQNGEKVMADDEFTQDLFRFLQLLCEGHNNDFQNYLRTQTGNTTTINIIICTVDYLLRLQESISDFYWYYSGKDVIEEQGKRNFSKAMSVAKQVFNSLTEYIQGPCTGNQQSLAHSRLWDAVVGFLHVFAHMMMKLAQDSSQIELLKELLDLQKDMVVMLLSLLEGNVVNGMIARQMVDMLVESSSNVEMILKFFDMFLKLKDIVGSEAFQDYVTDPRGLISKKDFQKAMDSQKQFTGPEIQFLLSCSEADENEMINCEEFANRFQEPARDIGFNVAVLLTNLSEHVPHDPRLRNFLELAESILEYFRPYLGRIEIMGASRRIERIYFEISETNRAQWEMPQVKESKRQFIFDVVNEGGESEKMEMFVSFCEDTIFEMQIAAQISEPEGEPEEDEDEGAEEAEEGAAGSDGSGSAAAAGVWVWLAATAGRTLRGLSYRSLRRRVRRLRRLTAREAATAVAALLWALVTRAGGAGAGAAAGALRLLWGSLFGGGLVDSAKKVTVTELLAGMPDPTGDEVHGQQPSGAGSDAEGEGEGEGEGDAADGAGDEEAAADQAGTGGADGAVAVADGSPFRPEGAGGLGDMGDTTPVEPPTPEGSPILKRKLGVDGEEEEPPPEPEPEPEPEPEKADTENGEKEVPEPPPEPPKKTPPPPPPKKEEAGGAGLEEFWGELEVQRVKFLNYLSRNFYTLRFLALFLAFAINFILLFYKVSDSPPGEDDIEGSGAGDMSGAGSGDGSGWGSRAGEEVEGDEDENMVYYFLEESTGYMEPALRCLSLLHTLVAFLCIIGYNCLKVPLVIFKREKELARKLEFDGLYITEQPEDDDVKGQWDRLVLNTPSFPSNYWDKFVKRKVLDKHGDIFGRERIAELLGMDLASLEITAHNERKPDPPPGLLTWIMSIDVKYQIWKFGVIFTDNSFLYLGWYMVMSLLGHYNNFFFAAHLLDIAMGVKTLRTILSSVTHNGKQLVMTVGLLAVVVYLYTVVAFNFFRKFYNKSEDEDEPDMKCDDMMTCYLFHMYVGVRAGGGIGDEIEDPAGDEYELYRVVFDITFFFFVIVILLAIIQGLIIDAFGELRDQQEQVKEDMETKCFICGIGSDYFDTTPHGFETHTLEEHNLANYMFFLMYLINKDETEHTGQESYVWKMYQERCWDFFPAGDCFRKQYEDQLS
UniProt P26883: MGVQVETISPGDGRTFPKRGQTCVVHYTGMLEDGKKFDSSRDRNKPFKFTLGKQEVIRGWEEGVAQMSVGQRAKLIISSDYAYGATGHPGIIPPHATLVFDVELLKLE

Tests used:
[1] = target: ryanodine receptor calcium (Ca2+) release channel (RyR1) (mouse (endogenous in Balb/c EDL muscle)) (UniProt E9PZQ0); experiment: co-IP; RyR1 immunoprecipitated (anti-RyR1 5029) from EDL muscle of non-tumor control mice and of mice with 4T1 OCIB (4 weeks after inoculation); immunoblots for calstabin and Nox4, quantified on the Odyssey system; procedure as in ref. 9
[2] = target: ryanodine receptor calcium (Ca2+) release channel (RyR1) (mouse (endogenous in Balb/c EDL muscle)) (UniProt E9PZQ0); experiment: as above; remark: listed apart in the source

With “calstabin1 (also known as FKBP12) (from UniProt P26883 1-108)” the binding [1] was “binds”.

B1: NADPH oxidase 4 (Nox4) (enzyme, UniProt Q9JHI8 1-578)
chain: MAVSWRSWLANEGVKHLCLLIWLSLNVLLFWKTFLLYNQGPEYYYIHQMLGLGLCLSRASASVLNLNCSLILLPMCRTVLAYLRGSQKVPSRRTRRLLDKSKTLHITCGVTICIFSGVHVAAHLVNALNFSVNYSEDFLELNAARYQNEDPRKLLFTTIPGLTGVCMVVVLFLMVTASTYAIRVSNYDIFWYTHNLFFVFYMLLLLHVSGGLLKYQTNVDTHPPGCISLNQTSSQNMSIPDYVSEHFHGSLPRGFSKLEDRYQKTLVKICLEEPKFQAHFPQTWIWISGPLCLYCAERLYRCIRSNKPVTIISVINHPSDVMELRMIKENFKARPGQYIILHCPSVSALENHPFTLTMCPTETKATFGVHFKVVGDWTERFRDLLLPPSSQDSEILPFIHSRNYPKLYIDGPFGSPFEESLNYEVSLCVAGGIGVTPFASILNTLLDDWKPYKLRRLYFIWVCRDIQSFQWFADLLCVLHNKFWQENRPDFVNIQLYLSQTDGIQKIIGEKYHTLNSRLFIGRPRWKLLFDEIAKCNRGKTVGVFCCGPSSISKTLHSLSNRNNSYGTKFEYNKESFS
In the case of B1, the binding [2] is reported as “binds”.
